The list shows a part of the results. Residues, ends and D or L forms follow the SMILES beside them. *: point of attachment. Cbz = O=C(OCc1ccccc1)*
Assays:
Test in all cases: log2 fold change, soluble protein after heating vs DMSO (PISA); higher = thermal stabilisation; K562 cells, 10 uM, 30 min; active = over 0.2 and 3.5 SD of the protein, either way, in both replicates (recomputed)
[1] = compound: C1COCCN1CCN2C3=CC=CC=C3N=C2NC(=O)C4=CC(=CC=C4)[N+](=O)[O-] [IRAK-1-4 Inhibitor I]
Outline: (§1)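 K562 cells at 2×10^6 cells/mL were treated for 30 min with 10 μM compound, and aliquots were heated for 3 min over 48°C-58°C before pooling. Extraction used PBS with 0.5% NP-40 at 4°C, and soluble protein was the supernatant after 21,000xg for 90 min, measured by TMTpro 16plex LC-MS/MS with channel sums equalised. Thermal stability values, relative to control samples and from duplicates, are log2 fold changes.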

Amino acid sequences for entries named in this document (tags omitted). A change or cut given only in a name is not applied to a line headed by its entry.
UniProt Q99717: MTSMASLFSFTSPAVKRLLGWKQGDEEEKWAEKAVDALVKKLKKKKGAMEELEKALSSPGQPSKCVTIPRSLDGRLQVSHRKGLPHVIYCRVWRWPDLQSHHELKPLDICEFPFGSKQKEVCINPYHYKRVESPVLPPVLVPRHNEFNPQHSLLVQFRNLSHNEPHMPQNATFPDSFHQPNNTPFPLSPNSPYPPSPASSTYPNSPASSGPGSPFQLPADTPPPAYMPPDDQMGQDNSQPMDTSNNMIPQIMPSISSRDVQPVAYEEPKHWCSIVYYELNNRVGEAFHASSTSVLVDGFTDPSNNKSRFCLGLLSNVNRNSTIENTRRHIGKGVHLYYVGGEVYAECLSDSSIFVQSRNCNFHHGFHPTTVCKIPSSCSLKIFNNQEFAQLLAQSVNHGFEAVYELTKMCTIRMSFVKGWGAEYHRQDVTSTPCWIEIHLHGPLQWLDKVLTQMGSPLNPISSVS
UniProt Q9H4L7: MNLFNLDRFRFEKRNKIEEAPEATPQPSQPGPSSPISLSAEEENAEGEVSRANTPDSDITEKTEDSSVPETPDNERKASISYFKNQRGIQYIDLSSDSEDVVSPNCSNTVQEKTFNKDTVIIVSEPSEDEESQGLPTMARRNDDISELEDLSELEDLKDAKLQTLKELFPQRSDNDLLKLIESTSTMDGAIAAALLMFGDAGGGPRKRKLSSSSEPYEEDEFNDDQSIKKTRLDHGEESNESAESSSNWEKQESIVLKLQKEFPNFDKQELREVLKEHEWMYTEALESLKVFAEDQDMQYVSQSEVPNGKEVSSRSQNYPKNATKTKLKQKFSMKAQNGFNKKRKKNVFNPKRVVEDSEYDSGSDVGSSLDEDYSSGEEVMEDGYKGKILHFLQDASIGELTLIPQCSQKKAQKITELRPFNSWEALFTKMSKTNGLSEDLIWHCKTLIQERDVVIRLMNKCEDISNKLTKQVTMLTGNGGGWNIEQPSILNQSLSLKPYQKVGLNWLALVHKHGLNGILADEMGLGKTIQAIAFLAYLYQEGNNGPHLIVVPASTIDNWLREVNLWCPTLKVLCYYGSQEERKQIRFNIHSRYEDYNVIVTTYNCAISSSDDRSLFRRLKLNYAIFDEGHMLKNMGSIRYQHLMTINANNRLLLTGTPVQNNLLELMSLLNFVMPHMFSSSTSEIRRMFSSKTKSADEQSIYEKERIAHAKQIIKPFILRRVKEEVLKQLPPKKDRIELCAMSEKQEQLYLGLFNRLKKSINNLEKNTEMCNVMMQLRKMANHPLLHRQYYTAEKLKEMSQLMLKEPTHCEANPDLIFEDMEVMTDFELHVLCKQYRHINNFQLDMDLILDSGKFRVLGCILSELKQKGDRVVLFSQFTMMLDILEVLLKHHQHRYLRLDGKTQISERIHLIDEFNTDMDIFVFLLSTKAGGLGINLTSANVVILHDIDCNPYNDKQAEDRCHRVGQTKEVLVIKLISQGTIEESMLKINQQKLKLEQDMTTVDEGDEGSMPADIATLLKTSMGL
UniProt O00193: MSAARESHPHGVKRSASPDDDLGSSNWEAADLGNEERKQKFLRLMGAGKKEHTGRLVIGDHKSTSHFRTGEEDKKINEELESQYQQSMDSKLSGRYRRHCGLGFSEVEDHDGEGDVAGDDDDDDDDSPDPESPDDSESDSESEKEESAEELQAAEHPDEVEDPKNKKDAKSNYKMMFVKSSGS
UniProt Q96Q15: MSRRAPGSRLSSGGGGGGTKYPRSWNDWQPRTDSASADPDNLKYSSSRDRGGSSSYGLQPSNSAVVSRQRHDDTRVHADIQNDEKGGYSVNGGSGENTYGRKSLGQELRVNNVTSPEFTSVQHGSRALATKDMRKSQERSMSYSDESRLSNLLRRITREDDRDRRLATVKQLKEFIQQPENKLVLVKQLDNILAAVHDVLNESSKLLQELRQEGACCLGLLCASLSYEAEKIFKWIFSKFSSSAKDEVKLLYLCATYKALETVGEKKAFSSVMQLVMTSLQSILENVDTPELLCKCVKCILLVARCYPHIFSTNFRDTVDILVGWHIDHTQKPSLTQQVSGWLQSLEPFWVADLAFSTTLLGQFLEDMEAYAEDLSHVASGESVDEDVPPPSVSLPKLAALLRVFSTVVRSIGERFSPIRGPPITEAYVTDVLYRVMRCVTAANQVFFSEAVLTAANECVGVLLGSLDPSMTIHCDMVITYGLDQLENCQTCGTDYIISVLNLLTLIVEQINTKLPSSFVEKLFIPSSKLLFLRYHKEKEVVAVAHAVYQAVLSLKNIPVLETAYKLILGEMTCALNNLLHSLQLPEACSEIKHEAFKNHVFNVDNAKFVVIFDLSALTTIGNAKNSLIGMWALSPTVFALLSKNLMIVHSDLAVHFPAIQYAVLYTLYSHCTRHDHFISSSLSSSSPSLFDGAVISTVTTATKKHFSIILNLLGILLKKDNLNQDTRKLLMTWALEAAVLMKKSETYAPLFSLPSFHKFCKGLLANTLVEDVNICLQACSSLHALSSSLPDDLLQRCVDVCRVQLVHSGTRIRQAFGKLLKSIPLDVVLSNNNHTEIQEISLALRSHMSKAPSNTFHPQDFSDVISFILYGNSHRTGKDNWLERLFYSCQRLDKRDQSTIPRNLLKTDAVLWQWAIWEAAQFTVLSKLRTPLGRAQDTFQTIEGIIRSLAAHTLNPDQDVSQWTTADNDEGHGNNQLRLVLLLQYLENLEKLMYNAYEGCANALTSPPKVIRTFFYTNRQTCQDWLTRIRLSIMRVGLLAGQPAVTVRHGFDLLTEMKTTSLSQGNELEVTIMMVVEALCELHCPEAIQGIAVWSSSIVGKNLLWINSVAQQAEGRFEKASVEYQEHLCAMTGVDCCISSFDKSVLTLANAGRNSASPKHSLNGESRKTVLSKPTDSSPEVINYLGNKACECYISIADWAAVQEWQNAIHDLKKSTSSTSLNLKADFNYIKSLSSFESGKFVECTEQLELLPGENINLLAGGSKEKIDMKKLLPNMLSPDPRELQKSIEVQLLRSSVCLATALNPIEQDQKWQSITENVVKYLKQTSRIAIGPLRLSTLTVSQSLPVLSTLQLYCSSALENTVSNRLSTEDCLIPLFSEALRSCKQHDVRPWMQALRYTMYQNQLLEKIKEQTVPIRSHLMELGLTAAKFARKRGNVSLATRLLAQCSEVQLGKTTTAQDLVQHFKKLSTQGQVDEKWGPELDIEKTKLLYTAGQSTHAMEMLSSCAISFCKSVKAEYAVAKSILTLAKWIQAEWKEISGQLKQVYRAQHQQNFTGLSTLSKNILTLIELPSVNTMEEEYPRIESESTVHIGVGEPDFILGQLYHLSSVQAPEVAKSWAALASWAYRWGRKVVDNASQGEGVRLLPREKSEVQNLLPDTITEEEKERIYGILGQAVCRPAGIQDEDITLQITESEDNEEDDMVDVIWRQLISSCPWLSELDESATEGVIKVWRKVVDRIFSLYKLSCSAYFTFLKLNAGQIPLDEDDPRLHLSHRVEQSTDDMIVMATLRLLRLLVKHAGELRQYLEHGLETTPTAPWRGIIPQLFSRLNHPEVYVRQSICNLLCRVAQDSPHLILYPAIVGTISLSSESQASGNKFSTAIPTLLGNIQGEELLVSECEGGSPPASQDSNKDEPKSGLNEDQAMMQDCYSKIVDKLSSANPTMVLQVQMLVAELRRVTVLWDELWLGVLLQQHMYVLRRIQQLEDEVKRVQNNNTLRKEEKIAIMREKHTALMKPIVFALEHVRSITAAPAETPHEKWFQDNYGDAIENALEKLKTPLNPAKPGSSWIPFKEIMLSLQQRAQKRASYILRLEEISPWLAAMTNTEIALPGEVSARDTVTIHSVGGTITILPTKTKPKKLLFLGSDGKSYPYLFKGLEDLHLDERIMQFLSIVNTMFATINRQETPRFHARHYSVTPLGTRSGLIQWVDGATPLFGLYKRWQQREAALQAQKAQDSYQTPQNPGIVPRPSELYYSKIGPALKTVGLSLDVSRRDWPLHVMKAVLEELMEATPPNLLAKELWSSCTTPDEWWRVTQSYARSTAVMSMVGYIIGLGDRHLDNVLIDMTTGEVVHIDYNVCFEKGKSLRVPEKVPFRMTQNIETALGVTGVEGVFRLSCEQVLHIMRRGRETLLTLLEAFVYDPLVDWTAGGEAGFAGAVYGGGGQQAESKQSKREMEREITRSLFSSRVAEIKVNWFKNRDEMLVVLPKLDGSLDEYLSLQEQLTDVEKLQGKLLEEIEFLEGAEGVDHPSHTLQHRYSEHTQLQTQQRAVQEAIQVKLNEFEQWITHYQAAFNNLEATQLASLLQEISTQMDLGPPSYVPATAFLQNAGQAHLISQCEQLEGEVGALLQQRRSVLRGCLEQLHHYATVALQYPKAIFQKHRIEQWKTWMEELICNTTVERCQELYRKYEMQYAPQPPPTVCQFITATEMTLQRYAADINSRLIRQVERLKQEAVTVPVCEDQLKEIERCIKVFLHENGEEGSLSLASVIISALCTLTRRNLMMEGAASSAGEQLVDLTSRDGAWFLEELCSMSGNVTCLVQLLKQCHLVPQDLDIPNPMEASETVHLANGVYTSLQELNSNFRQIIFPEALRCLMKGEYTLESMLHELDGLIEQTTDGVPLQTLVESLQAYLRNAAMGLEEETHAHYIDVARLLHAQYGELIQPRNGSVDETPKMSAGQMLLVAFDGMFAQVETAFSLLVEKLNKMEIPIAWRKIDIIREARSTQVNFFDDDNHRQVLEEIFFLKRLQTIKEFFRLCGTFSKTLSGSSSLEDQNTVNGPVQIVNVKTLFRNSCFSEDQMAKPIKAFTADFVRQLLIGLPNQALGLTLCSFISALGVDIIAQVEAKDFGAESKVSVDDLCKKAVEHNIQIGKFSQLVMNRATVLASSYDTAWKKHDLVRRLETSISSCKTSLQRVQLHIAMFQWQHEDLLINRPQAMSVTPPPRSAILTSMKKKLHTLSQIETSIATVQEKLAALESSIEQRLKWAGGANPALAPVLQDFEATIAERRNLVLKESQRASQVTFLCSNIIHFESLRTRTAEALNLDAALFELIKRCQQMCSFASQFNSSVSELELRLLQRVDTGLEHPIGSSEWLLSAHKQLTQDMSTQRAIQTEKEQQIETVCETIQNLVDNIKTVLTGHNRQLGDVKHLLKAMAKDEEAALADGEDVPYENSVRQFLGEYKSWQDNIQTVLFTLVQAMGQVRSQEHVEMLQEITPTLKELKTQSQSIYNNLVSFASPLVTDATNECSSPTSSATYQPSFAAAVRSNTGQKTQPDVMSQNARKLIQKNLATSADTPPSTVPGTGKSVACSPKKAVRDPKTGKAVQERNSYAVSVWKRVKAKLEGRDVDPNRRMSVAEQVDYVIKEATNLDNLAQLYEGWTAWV
UniProt Q9H2G2: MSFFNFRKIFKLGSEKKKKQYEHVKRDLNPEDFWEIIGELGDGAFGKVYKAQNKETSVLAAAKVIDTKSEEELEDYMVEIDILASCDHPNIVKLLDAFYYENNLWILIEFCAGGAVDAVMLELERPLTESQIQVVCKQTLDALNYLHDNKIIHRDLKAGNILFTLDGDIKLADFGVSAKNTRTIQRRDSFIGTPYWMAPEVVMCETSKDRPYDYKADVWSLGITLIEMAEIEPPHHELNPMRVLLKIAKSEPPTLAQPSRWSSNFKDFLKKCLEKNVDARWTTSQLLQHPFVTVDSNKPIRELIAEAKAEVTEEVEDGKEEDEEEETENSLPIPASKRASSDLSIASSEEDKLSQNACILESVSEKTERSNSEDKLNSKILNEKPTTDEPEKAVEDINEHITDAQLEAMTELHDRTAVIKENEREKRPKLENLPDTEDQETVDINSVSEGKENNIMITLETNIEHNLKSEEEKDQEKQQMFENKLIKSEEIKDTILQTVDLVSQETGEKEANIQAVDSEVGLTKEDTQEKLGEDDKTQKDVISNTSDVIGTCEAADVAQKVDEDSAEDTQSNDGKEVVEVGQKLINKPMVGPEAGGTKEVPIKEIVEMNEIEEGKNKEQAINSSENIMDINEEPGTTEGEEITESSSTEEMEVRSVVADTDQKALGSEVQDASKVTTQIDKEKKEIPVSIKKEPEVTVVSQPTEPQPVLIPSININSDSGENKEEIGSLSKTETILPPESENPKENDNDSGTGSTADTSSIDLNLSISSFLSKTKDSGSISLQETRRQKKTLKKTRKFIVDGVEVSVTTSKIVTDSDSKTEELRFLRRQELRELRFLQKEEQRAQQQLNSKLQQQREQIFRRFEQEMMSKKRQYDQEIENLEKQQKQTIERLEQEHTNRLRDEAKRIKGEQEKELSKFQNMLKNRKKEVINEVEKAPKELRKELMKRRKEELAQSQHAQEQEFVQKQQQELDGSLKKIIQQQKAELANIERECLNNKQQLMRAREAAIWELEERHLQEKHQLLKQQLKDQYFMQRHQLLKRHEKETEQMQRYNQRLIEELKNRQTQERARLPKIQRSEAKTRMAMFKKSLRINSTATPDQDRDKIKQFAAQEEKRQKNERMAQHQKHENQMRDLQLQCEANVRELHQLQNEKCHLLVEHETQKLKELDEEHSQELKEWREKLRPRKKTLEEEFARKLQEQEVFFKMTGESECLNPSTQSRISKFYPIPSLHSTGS

[2] = compound: C=CC(=O)N1CCC[C@@H](n2nc(-c3ccc(Oc4ccccc4)cc3)c3c(N)ncnc32)C1 [ibrutinib]
Outline: as §1

[3] = compound: CC(=O)c1cnc2ccc(-c3cc(Cl)c(O)c(Cl)c3)nc2c1N[C@H]1CC[C@H](CN(C)C)CC1
Outline: as §1

[4] = compound: CC(C)(C)Cn1c(N)nc2ccc(-c3[nH]c(C(C)(C)C)nc3-c3ccc(F)cc3)nc21 [ralimetinib]
Outline: as §1

[5] = compound: CC(C)(O)CC(=O)NCCn1ccc2ncnc(Nc3ccc(Oc4cccc(C(F)(F)F)c4)c(Cl)c3)c21
Outline: as §1

[6] = compound: CC(C)C1=C2N=C(C=C(N2N=C1)NCC3=CC=CC=C3)NCCCCCCN
Outline: as §1

[7] = compound: CC(C)C[C@@H](C=O)NC(=O)[C@H](CC(C)C)NC(=O)[C@H](CC(C)C)NC(=O)OCc1ccccc1
Outline: as §1

[8] = compound: CC(C)N(C[C@H]1O[C@@H](n2cnc3c(N)ncnc32)[C@H](O)[C@@H]1O)[C@H]1C[C@@H](CCc2nc3cc(C(C)(C)C)ccc3[nH]2)C1 [pinometostat]
Outline: as §1

[9] = compound: CC1=C(C(CC(=O)N1)C2=CC=C(C=C2)C(F)(F)F)C(=O)NC3=C(C=C4C(=C3)C=NN4)F
Outline: as §1

[10] = compound: CC1=C(C2=C(C=C1)C(=O)C3=CC=CC=C3N2CCCN)C
Outline: as §1

Measured: log2 fold change

SNAP23 (UniProt O00161)
inactive: [1] 0.013 | [2] -0.013 | [3] -0.003 | [4] -0.029 | [5] 0.021 | [6] 0.034 | [7] 0.024 | [8] -0.061 | [9] 0.015 | [10] 0.007

SNX17 (UniProt Q15036)
inactive: [1] -0.034 | [2] -0.042 | [3] -0.116 | [4] 0.183 | [5] -0.055 | [6] -0.072 | [7] 0.043 | [8] -0.116 | [9] 0.218 | [10] 0.052

SMAD4 (UniProt Q13485)
inactive: [1] 0.072 | [2] -0.039 | [3] -0.017 | [4] 0.011 | [5] -0.016 | [6] 0.084 | [7] 0.089 | [8] -0.041 | [9] 0.013 | [10] 0.071

SMYD5 (UniProt Q6GMV2)
inactive: [1] 0.051 | [2] 0.002 | [3] -0.012 | [4] -0.051 | [5] -0.019 | [6] 0.025 | [7] -0.008 | [8] -0.036 | [9] -0.002 | [10] 0.025

SNRPA (UniProt P09012)
inactive: [1] 0.007 | [2] 0.046 | [3] 0.097 | [4] 0.006 | [5] 0.187 | [6] 0.198 | [7] 0.029 | [8] 0.012 | [9] -0.007 | [10] 0.02

SMAD5 (UniProt Q99717)
inactive: [1] -0.059 | [2] -0.042 | [3] 0.021 | [4] 0.129 | [5] -0.109 | [6] 0.184 | [7] 0.02 | [8] 0.094 | [9] -0.131 | [10] 0.096

SNUPN (UniProt O95149)
inactive: [1] 0.037 | [2] -0.039 | [3] -0.089 | [4] -0.026 | [5] -0.045 | [6] -0.034 | [7] 0.037 | [8] 0.07 | [10] -0.184

SNX6 (UniProt Q9UNH7)
inactive: [1] 0.012 | [2] 0.035 | [3] -0.233 | [4] -0.035 | [5] -0.249 | [6] -0.234 | [7] 0.013 | [8] 0.048 | [10] -0.013

SMARCA1 (UniProt P28370)
inactive: [1] -0.198 | [2] -0.05 | [3] -0.147 | [4] 0.019 | [5] -0.093 | [6] 0.021 | [7] 0.052 | [8] 0.32 | [10] -0.396

SMAP2 (UniProt Q8WU79)
inactive: [1] 0.04 | [2] -0.027 | [3] 0.039 | [4] 0.048 | [5] -0.039 | [6] 0.02 | [7] 0.137 | [8] 0.015 | [10] 0.004

SLC7A6OS (UniProt Q96CW6)
active: [8] 0.273
inactive: [1] 0.018 | [2] -0.027 | [3] 0.046 | [4] 0.134 | [5] -0.032 | [6] 0.045 | [7] -0.019 | [10] -0.199

SNX11 (UniProt Q9Y5W9)
inactive: [1] 0.069 | [2] 0.13 | [3] -0.062 | [4] -0.001 | [5] 0.085 | [6] -0.218 | [7] 0.043 | [8] -0.067 | [10] -0.101

SLC9A6 isoform 2 (UniProt Q92581)
inactive: [1] 0.052 | [2] 0.024 | [3] 0.005 | [4] -0.056 | [5] -0.02 | [6] 0.038 | [7] 0.042 | [8] 0.083 | [10] 0.023

SNX9 (UniProt Q9Y5X1)
inactive: [1] -0.011 | [2] 0.025 | [3] -0.043 | [4] 0.005 | [5] 0.002 | [6] 0.014 | [7] 0.029 | [8] 0.04 | [10] 0.02

SMARCAD1 isoform 2 (UniProt Q9H4L7)
inactive: [1] -0.031 | [2] -0.016 | [3] 0.014 | [4] -0.009 | [5] -0.201 | [6] -0.2 | [7] 0.029 | [8] -0.003 | [10] 0.144

SPAG9 (UniProt O60271)
inactive: [1] -0.003 | [2] -0.003 | [3] 0.022 | [4] 0 | [5] -0.045 | [7] 0.016 | [8] 0.028 | [10] -0.004
active: [6] -0.219

SP1 (UniProt P08047)
active: [10] -0.312
inactive: [1] 0.013 | [2] 0.024 | [3] 0.029 | [4] -0.049 | [5] -0.031 | [6] -0.05 | [7] 0.064 | [8] 0.04

SNW1 (UniProt Q13573)
active: [10] 0.23
inactive: [1] 0.004 | [2] 0.024 | [3] 0.197 | [4] 0.021 | [5] 0.024 | [6] 0.149 | [7] 0.075 | [8] -0.008

SNX5 (UniProt Q9Y5X3)
inactive: [1] 0.042 | [2] 0.019 | [3] -0.167 | [4] -0.038 | [6] -0.224 | [7] 0.005 | [8] 0.027 | [10] -0.026
active: [5] -0.304

SMAD9 (UniProt O15198)
inactive: [1] -0.033 | [2] 0.007 | [3] -0.092 | [4] -0.087 | [5] -0.022 | [6] 0.005 | [7] 0.06 | [8] 0.024 | [10] 0.017

SMARCE1 (UniProt Q969G3)
inactive: [1] -0.29 | [2] 0.185 | [3] -0.006 | [4] 0.163 | [5] -0.043 | [6] -0.128 | [7] -0.037 | [8] -0.031 | [10] -0.091

SNX2 (UniProt O60749)
inactive: [1] 0.058 | [2] 0.043 | [3] -0.135 | [4] -0.014 | [5] -0.154 | [6] -0.189 | [7] 0.079 | [8] 0.016 | [10] 0.03

SMARCA5 (UniProt O60264)
inactive: [1] -0.108 | [2] -0.135 | [3] 0.103 | [4] 0.033 | [5] -0.113 | [6] -0.025 | [7] 0.084 | [8] 0.068
active: [10] -0.97

SMAP (UniProt O00193)
inactive: [1] 0.134 | [2] -0.063 | [3] -0.021 | [4] 0.007 | [5] -0.004 | [6] 0.058 | [7] -0.018 | [8] -0.049 | [10] -0.021

SMG1 (UniProt Q96Q15)
inactive: [1] -0.088 | [2] 0.021 | [3] -0.002 | [4] 0.012 | [5] 0.002 | [6] 0.007 | [7] -0.014 | [8] -0.06 | [10] 0.054

SLC7A6 (UniProt Q92536)
inactive: [1] -0.03 | [2] -0.032 | [3] -0.037 | [4] -0.02 | [5] -0.301 | [6] 0.142 | [7] 0.006 | [8] -0.068 | [10] -0.02

Eight successive records already listed:
SMARCA1 (UniProt P28370)
inactive: [1] -0.198 | [2] -0.05 | [3] -0.147 | [4] 0.019 | [5] -0.093 | [6] 0.021 | [7] 0.052 | [8] 0.32 | [10] -0.396

SMAP2 (UniProt Q8WU79)
inactive: [1] 0.04 | [2] -0.027 | [3] 0.039 | [4] 0.048 | [5] -0.039 | [6] 0.02 | [7] 0.137 | [8] 0.015 | [10] 0.004

SLC7A6OS (UniProt Q96CW6)
active: [8] 0.273
inactive: [1] 0.018 | [2] -0.027 | [3] 0.046 | [4] 0.134 | [5] -0.032 | [6] 0.045 | [7] -0.019 | [10] -0.199

SNX11 (UniProt Q9Y5W9)
inactive: [1] 0.069 | [2] 0.13 | [3] -0.062 | [4] -0.001 | [5] 0.085 | [6] -0.218 | [7] 0.043 | [8] -0.067 | [10] -0.101

SLC9A6 isoform 2 (UniProt Q92581)
inactive: [1] 0.052 | [2] 0.024 | [3] 0.005 | [4] -0.056 | [5] -0.02 | [6] 0.038 | [7] 0.042 | [8] 0.083 | [10] 0.023

SNX9 (UniProt Q9Y5X1)
inactive: [1] -0.011 | [2] 0.025 | [3] -0.043 | [4] 0.005 | [5] 0.002 | [6] 0.014 | [7] 0.029 | [8] 0.04 | [10] 0.02

SMARCAD1 isoform 2 (UniProt Q9H4L7)
inactive: [1] -0.031 | [2] -0.016 | [3] 0.014 | [4] -0.009 | [5] -0.201 | [6] -0.2 | [7] 0.029 | [8] -0.003 | [10] 0.144

SPAG9 (UniProt O60271)
inactive: [1] -0.003 | [2] -0.003 | [3] 0.022 | [4] 0 | [5] -0.045 | [7] 0.016 | [8] 0.028 | [10] -0.004
active: [6] -0.219

(continued)

SLK isoform 2 (UniProt Q9H2G2)
inactive: [1] -0.008 | [2] -0.123 | [3] 0.04 | [4] 0.005 | [5] -0.216 | [6] 0.002 | [7] 0.022 | [8] 0.022 | [10] 0.073

SNRPB2 (UniProt P08579)
inactive: [1] 0.067 | [2] 0.074 | [3] 0.089 | [4] -0.015 | [5] 0.037 | [7] 0.037 | [8] 0 | [10] 0.036
active: [6] 0.213

SNRNP40 (UniProt Q96DI7)
active: [10] 1.03
inactive: [1] -0.016 | [2] 0.045 | [3] 0.068 | [4] -0.026 | [5] 0.086 | [6] 0.177 | [7] 0.038 | [8] -0.019

SLIRP (UniProt Q9GZT3)
inactive: [1] 0.004 | [2] 0.035 | [3] -0.192 | [4] -0.027 | [5] -0.239 | [6] -0.02 | [8] -0.016 | [10] -0.342
active: [7] 0.393

SMC5 (UniProt Q8IY18)
inactive: [1] 0.041 | [2] 0.062 | [3] -0.045 | [4] 0.046 | [5] 0.029 | [6] 0.161 | [7] 0.036 | [8] 0.008
active: [10] -0.332

SP3 (UniProt Q02447)
inactive: [1] -0.129 | [2] 0.003 | [3] -0.007 | [4] 0 | [5] 0.022 | [6] -0.006 | [7] 0.054 | [8] 0.026
active: [10] 0.607

From the supplement of paper PMC10849652
